Laboratory results taken from patent US20100113513A1, “QUINOLINE DERIVATIVES AS FUNGICIDES” (SYNGENTA CROP PROTECTION, INC., priority 2007, published 2010).
Some of these results come from one statement about several compounds together.

Legend:
Plasmopara viticola = Plasmopara viticola (downy mildew of grapevine) grapevine leaf disk test, preventive; type: in vivo; settings: 200 ppm; grapevine leaf disks; assessed seven days after inoculation
[1] = system: Erysiphe graminis f.sp. tritici; assay: Erysiphe graminis f.sp. tritici (wheat powdery mildew) wheat leaf segment test, preventive; type: in vivo; settings: 200 ppm; wheat leaf segments; assessed four days after inoculation
Septoria tritici = Septoria tritici (leaf blotch) growth inhibition in nutrient broth, photometric; type: cell-based; settings: 200 ppm, 24 C, inhibition of growth after 72 hrs
Botrytis cinerea = Botrytis cinerea (grey mould) bean leaf disk test, preventive; type: in vivo; settings: 200 ppm; bean leaf disks; assessed four days after inoculation

Compound | control of fungal infection, Plasmopara viticola (Plasmopara viticola) [%] | control of fungal infection, Erysiphe graminis f.sp. tritici [1] [%] | control of fungal infection, Septoria tritici (Septoria tritici) [%] | control of fungal infection, Botrytis cinerea (Botrytis cinerea) [%]
COC(Oc1cc(Cl)c2ncc(Br)cc2c1)C(=O)NC(C)(C)C (stereo not shown) [12 (95)] | ≥ 60 | ≥ 60 |  | 
CCC(Oc1cc(C)c2ncc(I)cc2c1)C(=O)NC(C)(C)C(=O)OC (stereo not shown) [32 (162)] | ≥ 60 | ≥ 60 | ≥ 60 | 
CCC(Oc1ccc2ncc(I)cc2c1)C(=O)NC1CC=CC1 (stereo not shown) [177 (162)] | ≥ 60 | ≥ 60 | ≥ 60 | ≥ 60
CCC(Oc1ccc2ncc(I)cc2c1)C(=O)NCc1cccnc1 (stereo not shown) [189 (162)] |  | ≥ 60 |  | 
